# Laboratory results from PubChem BioAssay (EPA / NIEHS).
# Amino acid sequences for entries named in this document (tags omitted). A change or cut given only in a name is not applied to a line headed by its entry.
# UniProt P37231: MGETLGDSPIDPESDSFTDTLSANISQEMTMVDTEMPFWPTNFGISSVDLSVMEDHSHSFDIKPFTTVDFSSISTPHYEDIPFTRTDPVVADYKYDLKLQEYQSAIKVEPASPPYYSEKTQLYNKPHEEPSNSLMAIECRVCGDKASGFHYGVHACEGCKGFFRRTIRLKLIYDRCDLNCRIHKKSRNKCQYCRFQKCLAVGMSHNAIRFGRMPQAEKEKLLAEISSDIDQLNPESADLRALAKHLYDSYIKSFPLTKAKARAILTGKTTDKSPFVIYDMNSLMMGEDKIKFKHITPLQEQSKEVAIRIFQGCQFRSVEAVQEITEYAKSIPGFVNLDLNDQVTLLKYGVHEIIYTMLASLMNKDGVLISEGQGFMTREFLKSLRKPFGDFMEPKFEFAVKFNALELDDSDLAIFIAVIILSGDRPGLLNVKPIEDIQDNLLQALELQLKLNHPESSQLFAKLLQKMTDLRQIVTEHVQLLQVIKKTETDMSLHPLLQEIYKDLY
# UniProt P51449: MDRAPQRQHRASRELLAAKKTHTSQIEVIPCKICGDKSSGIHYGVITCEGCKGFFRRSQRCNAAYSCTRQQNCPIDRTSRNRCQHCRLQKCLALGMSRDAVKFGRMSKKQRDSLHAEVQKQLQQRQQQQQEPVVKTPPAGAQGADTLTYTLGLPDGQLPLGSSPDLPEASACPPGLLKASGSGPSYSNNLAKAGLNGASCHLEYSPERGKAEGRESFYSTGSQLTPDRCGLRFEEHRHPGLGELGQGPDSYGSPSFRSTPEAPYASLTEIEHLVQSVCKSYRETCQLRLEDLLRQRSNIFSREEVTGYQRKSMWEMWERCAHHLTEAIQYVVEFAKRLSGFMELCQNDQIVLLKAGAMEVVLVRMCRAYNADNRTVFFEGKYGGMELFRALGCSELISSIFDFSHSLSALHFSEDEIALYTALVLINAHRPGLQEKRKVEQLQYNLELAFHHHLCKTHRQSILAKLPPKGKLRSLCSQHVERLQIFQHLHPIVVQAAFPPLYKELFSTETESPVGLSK
# UniProt P19793: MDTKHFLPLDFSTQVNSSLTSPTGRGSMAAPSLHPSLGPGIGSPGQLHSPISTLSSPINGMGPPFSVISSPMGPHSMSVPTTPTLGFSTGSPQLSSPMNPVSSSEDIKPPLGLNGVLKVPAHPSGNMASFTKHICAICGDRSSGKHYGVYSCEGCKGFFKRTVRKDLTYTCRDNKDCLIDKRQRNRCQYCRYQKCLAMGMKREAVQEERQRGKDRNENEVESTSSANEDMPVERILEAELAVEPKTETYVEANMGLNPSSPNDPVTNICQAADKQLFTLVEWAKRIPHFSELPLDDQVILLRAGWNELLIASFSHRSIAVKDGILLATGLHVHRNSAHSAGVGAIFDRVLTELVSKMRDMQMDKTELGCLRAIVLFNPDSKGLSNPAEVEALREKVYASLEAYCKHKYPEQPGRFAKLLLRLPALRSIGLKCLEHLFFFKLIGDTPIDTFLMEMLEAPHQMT
# UniProt P28702: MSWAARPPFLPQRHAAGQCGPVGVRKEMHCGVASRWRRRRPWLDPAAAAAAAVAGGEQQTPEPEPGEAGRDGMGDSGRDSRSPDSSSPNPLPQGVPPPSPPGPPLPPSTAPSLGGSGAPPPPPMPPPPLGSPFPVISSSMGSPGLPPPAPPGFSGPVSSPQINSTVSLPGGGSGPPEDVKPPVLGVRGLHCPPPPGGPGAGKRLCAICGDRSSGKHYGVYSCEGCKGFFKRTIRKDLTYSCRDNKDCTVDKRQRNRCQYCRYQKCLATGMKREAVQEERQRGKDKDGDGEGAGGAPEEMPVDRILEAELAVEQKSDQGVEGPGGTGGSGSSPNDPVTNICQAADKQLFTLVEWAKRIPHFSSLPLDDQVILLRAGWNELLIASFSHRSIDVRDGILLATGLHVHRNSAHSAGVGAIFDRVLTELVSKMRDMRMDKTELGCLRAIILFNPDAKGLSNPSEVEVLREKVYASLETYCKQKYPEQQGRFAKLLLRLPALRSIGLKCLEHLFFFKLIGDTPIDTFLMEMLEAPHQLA
# UniProt Q92753: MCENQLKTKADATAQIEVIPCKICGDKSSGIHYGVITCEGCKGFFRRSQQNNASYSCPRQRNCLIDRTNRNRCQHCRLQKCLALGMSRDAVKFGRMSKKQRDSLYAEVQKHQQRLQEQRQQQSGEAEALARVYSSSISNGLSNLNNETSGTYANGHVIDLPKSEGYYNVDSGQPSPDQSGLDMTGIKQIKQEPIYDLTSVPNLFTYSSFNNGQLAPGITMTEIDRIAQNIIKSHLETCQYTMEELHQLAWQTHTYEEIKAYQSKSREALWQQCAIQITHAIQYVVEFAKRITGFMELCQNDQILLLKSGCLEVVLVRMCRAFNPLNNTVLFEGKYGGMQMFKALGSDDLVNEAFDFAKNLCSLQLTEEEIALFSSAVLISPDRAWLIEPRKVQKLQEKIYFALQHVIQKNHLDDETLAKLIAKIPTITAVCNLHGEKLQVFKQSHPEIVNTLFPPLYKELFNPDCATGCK
# UniProt P10827: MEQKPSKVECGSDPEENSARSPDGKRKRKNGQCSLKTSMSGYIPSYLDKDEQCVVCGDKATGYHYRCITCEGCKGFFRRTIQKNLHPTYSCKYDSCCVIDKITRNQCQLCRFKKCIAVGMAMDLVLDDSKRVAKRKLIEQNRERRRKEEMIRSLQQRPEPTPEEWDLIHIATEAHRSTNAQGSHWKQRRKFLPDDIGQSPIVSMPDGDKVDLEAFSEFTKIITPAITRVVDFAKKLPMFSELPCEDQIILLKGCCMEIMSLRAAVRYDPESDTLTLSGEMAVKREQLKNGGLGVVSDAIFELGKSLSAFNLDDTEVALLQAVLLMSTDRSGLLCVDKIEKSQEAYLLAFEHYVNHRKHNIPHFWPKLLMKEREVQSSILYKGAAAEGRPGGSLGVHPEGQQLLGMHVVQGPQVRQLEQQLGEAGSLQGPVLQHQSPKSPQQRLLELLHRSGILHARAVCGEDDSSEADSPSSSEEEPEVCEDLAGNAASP
# UniProt P11473: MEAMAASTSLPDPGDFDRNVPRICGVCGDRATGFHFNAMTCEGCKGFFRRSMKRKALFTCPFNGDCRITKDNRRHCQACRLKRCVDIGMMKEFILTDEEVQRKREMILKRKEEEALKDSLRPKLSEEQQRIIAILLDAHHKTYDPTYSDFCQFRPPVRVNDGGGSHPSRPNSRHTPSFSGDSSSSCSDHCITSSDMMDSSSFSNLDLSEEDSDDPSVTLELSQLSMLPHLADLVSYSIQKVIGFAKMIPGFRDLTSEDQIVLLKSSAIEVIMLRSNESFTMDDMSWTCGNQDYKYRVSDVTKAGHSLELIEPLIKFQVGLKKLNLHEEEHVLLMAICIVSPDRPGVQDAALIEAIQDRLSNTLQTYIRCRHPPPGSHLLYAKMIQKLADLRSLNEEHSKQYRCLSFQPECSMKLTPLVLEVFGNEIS
# UniProt P11511: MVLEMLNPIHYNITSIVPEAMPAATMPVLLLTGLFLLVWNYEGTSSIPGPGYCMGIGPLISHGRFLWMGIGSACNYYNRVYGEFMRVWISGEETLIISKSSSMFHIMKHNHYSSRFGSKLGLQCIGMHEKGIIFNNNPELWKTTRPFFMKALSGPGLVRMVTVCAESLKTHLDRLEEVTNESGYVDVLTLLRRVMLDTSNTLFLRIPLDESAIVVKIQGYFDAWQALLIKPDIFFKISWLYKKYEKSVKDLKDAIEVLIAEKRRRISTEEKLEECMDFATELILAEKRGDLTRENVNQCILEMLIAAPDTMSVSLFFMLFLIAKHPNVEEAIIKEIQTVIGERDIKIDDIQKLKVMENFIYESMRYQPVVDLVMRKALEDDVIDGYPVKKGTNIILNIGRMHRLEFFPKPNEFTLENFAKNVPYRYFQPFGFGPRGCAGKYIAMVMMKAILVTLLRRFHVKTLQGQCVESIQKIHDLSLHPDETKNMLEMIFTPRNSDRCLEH
# Inconclusive results, whose numbers are uncertain, are shown with a selection of clear calls. A potency beside an inconclusive call is a rough fit, not a confirmed value. Activity calls are given as the source filed them. The calls were made as follows: active = hit-call score of the fitted dose curve at least 0.9, where 1 is the maximum; inconclusive = response in the unintended direction; inactive = score below 0.9.
# Legend:
# [1] = target: Peroxisome proliferator-activated receptor gamma (Homo sapiens) (UniProt P37231); assay: ATG_PPARg_TRANS: Attagene TRANS-FACTORIAL HepG2 Assay for human Peroxisome Proliferator-activated Receptor-gamma (PPARg) (AID 2283007)
# In short: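 Multiplexed reporter transcription units in HepG2, 24 h dosing, reporter transcripts quantified by fluorescent RT-PCR and capillary electrophoresis. Increase over DMSO scored.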
# [2] = target: human RAR-related Orphan Receptor gamma (RORg), RORC (gene 6097) (UniProt P51449); assay: ATG_RORg_TRANS: Attagene TRANS-FACTORIAL HepG2 Assay for human RAR-related Orphan Receptor gamma (RORg) (AID 2283011);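 as to AC50: potency for induction of reporter transcripts above DMSO so activators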
# In short: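 Chimeric RORg-Gal4 transactivation in transfected HepG2; 24 h exposure; RT-PCR/capillary electrophoresis readout of reporter mRNA, DMSO baseline.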
# [3] = target: Retinoic acid receptor RXR-alpha (Homo sapiens) (UniProt P19793); assay: ATG_RXRa_TRANS: Attagene TRANS-FACTORIAL HepG2 Assay for human Retinoid X Receptor alpha (RXRa) (AID 2283012)
# In short: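 Transient transfection of human HepG2 with multiple GAL4-UAS reporter constructs; 24 h compound exposure; total RNA isolated, reverse-transcribed, PCR-amplified, 6-FAM labelled, HpaI-cut, resolved by capillary electrophoresis. Positive-direction fit versus DMSO.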
# [4] = target: human Retinoid X Receptor beta (RXRb), RXRB (gene 6257) (UniProt P28702); assay: ATG_RXRb_TRANS: Attagene TRANS-FACTORIAL HepG2 Assay for human Retinoid X Receptor beta (RXRb) (AID 2283013)
# In short: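 Transfect HepG2 with GAL4-UAS multi-reporter constructs (chimeric NR-Gal4, TRANS format); dose compound 24 h; isolate RNA, RT-PCR, FAM primer extension, HpaI digest; quantify by capillary electrophoresis; positive direction vs DMSO.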
# [5] = target: human RAR-related Orphan Receptor beta (RORb), RORB (gene 6096) (UniProt Q92753); assay: ATG_RORb_TRANS: Attagene TRANS-FACTORIAL HepG2 Assay for human RAR-related Orphan Receptor beta (RORb) (AID 2283010);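 as to AC50: potency for increased reporter mRNA meaning activation of RORb-Gal4 chimera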
# In short: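 Readout is reporter-gene mRNA induction, detected as fluorescence after RT-PCR and capillary electrophoresis, fitted for gain of signal against DMSO controls. Transiently transfected HepG2 liver cells carrying GAL4-UAS reporter constructs were treated for 24 hours.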
# [6] = target: human Thyroid Receptor alpha (THRa1), THRA (gene 7067) (UniProt P10827); assay: ATG_THRa1_TRANS: Attagene TRANS-FACTORIAL HepG2 Assay for human Thyroid Receptor alpha (THRa1) (AID 2283014)
# In short: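 Measured here is mRNA from a GAL4-UAS reporter in transfected HepG2 cells carrying a Gal4-fused receptor, 24 h post-dose. DMSO served as negative control and baseline.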
# [7] = target: human Vitamin D Receptor (VDR), VDR (gene 7421) (UniProt P11473); assay: ATG_VDR_TRANS: Attagene TRANS-FACTORIAL HepG2 Assay for human Vitamin D Receptor (VDR) (AID 2283022)
# In short: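 Multiplexed TRANS reporter in HepG2; 24 h treatment; reporter mRNA by RT-PCR plus capillary electrophoresis; upregulation scored relative to DMSO.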
# [8] = target: human CYP19A1, CYP19A1 (gene 1588) (UniProt P11511); assay: NVS_ADME_hCYP19A1: NovaScreen (NVS) CYP450-related Enzyme Activity (ADME) Assay for human CYP19A1 (AID 2283098);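 also: potency for inhibitors seen as loss of fluorescent enzyme signal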
# In short: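 Biochem, cell-free; recombinant enzyme + specific substrate; fluorescence intensity at 0.5 h post-dose; 10 uM duplicate primary, conc. series for actives; acetonitrile = negative control/baseline; positive and negative controls on every plate.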
smiles,measurement,setting,value
CCC(C(=O)NC(N)=O)c1ccccc1 (stereo unspecified),AC50,[1],inconclusive: 100 µM
same,AC50,[2],inconclusive: 100 µM
same,AC50,[3],inconclusive: 100 µM
same,AC50,[4],inconclusive: 100 µM
Cc1ccc(O)c(C(C)(C)C)c1,AC50,[1],inconclusive: 33.4 µM
same,outcome,[5],inactive
same,outcome,[2],inactive
same,AC50,[4],active: 9 µM
same,AC50,[6],inconclusive: 33.4 µM
same,AC50,[7],inconclusive: 33.4 µM
CC(=O)NCCO,AC50,[1],inconclusive: 100 µM
same,outcome,[5],inactive
same,AC50,[2],inconclusive: 100 µM
same,AC50,[6],inconclusive: 140 µM
same,AC50,[7],inconclusive: 100 µM
NNC(=O)CCCCC(=O)NN,AC50,[1],inconclusive: 100 µM
same,outcome,[5],inactive
same,AC50,[2],inconclusive: 100 µM
same,AC50,[4],inconclusive: 100 µM
same,outcome,[6],inactive
Cc1cccc(C)c1O,AC50,[1],inconclusive: 100 µM
same,AC50,[5],inconclusive: 100 µM
same,outcome,[4],inactive
c1ccc(OCCOc2ccccc2)cc1,AC50,[1],inconclusive: 0.56 µM
same,outcome,[5],inactive
same,AC50,[2],inconclusive: 0.0104 µM
same,AC50,[4],inconclusive: 100 µM
same,outcome,[7],inactive
O=C(Nc1cccc([N+](=O)[O-])c1)c1cc2ccccc2cc1O,AC50,[1],active: 6.92 µM
same,outcome,[5],inactive
same,AC50,[2],inconclusive: 100 µM
same,outcome,[4],inactive
same,AC50,[6],active: 17.5 µM
CC(=O)[C@H]1CC[C@H]2[C@@H]3CC=C4C[C@@H](O)CC[C@]4(C)[C@H]3CC[C@]12C,outcome,[1],inactive
same,AC50,[5],inconclusive: 41 µM
same,AC50,[2],inconclusive: 100 µM
same,AC50,[4],inconclusive: 2.12 µM
same,outcome,[6],inactive
same,AC50,[7],inconclusive: 100 µM
C=CC(C)(C)O,outcome,[1],inactive
same,AC50,[5],inconclusive: 100 µM
same,AC50,[2],inconclusive: 0.21 µM
same,outcome,[4],inactive
same,AC50,[6],inconclusive: 100 µM
FC(F)(F)C(F)(F)C(F)(F)C(F)(F)C(F)(F)C(F)(F)CCI,AC50,[1],inconclusive: 24.4 µM
same,outcome,[5],inactive
same,outcome,[2],inactive
same,AC50,[6],inconclusive: 0.779 µM
same,AC50,[7],inconclusive: 11.8 µM
same,AC50,[8],inconclusive: 5 µM
O=c1[nH]nnc2ccccc12,AC50,[1],inconclusive: 100 µM
same,AC50,[5],inconclusive: 100 µM
same,AC50,[2],inconclusive: 100 µM
same,AC50,[4],inconclusive: 100 µM
same,outcome,[6],inactive
Clc1ccc(Cl)c(Cl)c1Cl,AC50,[1],inconclusive: 6 µM
same,AC50,[5],inconclusive: 171 µM
same,outcome,[3],inactive
same,AC50,[4],active: 63.4 µM
C[C@H](CCC(=O)O)[C@H]1CC[C@H]2[C@@H]3CC[C@@H]4C[C@H](O)CC[C@]4(C)[C@H]3CC[C@]12C,AC50,[1],active: 29.1 µM
same,outcome,[5],inactive
same,AC50,[4],inconclusive: 25.9 µM
same,AC50,[6],inconclusive: 1.08 µM
Clc1cc(Cl)c(Cl)cc1Cl,AC50,[1],inconclusive: 23.4 µM
same,AC50,[5],inconclusive: 0.0819 µM
same,AC50,[2],inconclusive: 100 µM
same,AC50,[6],inconclusive: 27.1 µM
same,AC50,[8],inconclusive: 0.0222 µM
Cc1nc(C)nc(N2C[C@@H](C)N(c3ccnc([C@@H](C)O)n3)[C@@H](C)C2)n1,AC50,[1],inconclusive: 13.1 µM
same,AC50,[5],inconclusive: 29.6 µM
same,AC50,[2],inconclusive: 50 µM
same,AC50,[4],inconclusive: 50 µM
same,AC50,[6],inconclusive: 7.7 µM
C=CCOC(Cn1ccnc1)c1ccc(Cl)cc1Cl (stereo unspecified),AC50,[1],active: 71.7 µM
same,AC50,[5],inconclusive: 2 µM
same,outcome,[2],inactive
same,AC50,[6],inconclusive: 0.39 µM

# Five neighbouring entries out of the list so far, for reference:
smiles,measurement,setting,value
CC(=O)[C@H]1CC[C@H]2[C@@H]3CC=C4C[C@@H](O)CC[C@]4(C)[C@H]3CC[C@]12C,outcome,[1],inactive
same,AC50,[5],inconclusive: 41 µM
same,AC50,[2],inconclusive: 100 µM
same,AC50,[4],inconclusive: 2.12 µM
same,outcome,[6],inactive
